The record followed here is PMC5696377.

These are yes or no findings as the source states them, for the method shown. A result given as binding can be weak or reduced; the word gives no strength.

The target of test [1] is T1, IKKα (human (endogenous in MDA-MB-231, BT549)) (UniProt O15111).
T1 sequence: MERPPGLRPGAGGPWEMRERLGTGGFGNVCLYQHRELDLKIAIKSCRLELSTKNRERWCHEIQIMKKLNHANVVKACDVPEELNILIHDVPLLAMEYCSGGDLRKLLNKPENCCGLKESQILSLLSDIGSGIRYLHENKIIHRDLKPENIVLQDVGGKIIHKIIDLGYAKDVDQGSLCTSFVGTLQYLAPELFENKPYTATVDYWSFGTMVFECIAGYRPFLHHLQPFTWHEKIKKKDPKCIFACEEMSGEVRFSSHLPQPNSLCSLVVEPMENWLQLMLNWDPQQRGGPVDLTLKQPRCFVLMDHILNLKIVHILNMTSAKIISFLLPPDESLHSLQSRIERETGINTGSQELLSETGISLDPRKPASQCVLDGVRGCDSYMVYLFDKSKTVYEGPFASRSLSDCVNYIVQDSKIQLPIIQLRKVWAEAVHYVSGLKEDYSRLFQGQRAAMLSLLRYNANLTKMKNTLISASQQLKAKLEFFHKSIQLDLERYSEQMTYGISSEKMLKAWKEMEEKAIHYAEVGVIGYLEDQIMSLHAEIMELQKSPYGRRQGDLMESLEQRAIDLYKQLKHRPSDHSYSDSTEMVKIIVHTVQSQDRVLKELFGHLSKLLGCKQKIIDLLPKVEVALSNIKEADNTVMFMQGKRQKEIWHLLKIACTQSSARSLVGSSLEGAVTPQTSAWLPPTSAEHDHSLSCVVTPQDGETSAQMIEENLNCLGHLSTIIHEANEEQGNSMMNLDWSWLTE
In words: SEC; total protein extracts of MDA-MB-231 (control and shMORG1) on Superose 6 10/300 GL, 25 mM Tris-HCl pH 8.0, 1 mM MgCl2, 10% glycerol; fractions analysed by Western blot. A general note: SEC sorts molecules by how far they enter the pores of the column.

The target of test [2] is T2, IKKβ (human (endogenous in MDA-MB-231, BT549)) (UniProt O14920).
T2 sequence: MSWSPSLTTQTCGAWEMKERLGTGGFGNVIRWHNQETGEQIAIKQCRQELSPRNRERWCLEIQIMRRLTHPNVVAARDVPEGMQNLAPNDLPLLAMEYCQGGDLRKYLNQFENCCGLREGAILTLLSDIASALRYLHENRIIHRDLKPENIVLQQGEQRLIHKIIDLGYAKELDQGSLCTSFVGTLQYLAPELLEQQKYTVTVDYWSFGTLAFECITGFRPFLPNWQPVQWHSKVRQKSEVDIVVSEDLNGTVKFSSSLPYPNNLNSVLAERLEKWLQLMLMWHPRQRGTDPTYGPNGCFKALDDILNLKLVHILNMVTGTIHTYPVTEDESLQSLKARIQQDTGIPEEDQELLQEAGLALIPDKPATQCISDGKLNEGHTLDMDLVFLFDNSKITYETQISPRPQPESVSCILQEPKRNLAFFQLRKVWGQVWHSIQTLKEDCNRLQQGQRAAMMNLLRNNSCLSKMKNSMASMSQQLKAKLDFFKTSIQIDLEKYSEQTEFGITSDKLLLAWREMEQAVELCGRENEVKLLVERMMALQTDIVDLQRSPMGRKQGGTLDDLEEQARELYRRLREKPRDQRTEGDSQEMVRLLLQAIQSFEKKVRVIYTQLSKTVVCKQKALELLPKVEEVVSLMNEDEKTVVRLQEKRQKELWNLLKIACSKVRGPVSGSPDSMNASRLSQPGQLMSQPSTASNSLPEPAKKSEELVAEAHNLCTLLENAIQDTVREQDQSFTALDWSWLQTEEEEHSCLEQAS
Described as above.

Take “Hsp90 (human (endogenous in MDA-MB-231))”: the binding result in test [1] and in test [2] was “binds” in each case.
